Measurements reported in PubChem BioAssay AID652272 (Drosophila RNAi Screening Center, 2013).
In all, the deposit lists about 21,000 reagents; shown is an unselected part of those that have a named target and a result. Over the whole deposit, 503 (2.4%) were called active. 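Raw plate light values, not normalised; calls rest on replicate z-scores that were not deposited; hits include reporter decreases as well as increases.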 Names joined by + are all predicted targets of the reagent. The record does not give: the amount of reagent, the time to read-out.

- Aim: 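Finding fly genes that regulate Hedgehog signal transduction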 (primary screen)
- System: Drosophila clone 8 (Cl8) cells
- Reagent: long dsRNA against Drosophila genes
- Measured: 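Plate reader light from a firefly reporter under a ptc promoter fragment that responds to Hedgehog, with Renilla light as transfection reference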
- Direction: firefly Hh reporter signal: higher = more ptc reporter light; Renilla reference signal: higher = more Renilla control light
- Hit rule: 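Called a hit if the two-replicate mean z-score lies below -2 or above +3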
- Meaning of the calls: active = hit: reporter lowered or raised; inactive = not a hit

Target gene | DRSC id | firefly Hh reporter signal, replicate 1 | firefly Hh reporter signal, replicate 2 | firefly Hh reporter signal, replicate 3 | Renilla reference signal, replicate 1 | Renilla reference signal, replicate 2 | Outcome
CG32488 (GeneID 326220) | DRSC08549 | 7.59e5 | 1.15e5 | – | 4690 | 4690 | inactive
Dbp21E2 (GeneID 33254) | DRSC00616 | 1.03e5 | 1.45e5 | – | 4432 | 5940 | inactive
Gr66a (GeneID 38935) | DRSC10783 | 46541 | 49034 | – | 3794 | 4029 | inactive
CG17264 (GeneID 33511) | DRSC00500 | 51504 | 1.20e5 | – | 2752 | 5212 | inactive
CG44085 (GeneID 34732) | DRSC02922 | 29484 | 10404 | – | 1443 | 1613 | active
CG44085 (GeneID 34732) | DRSC02929 | 1.36e5 | 64269 | – | 2838 | 5594 | inactive
mRF1 (GeneID 34720) | DRSC02880 | 94369 | 58474 | – | 4412 | 2131 | inactive
GPHR (GeneID 36682) | DRSC07075 | 99392 | 63626 | – | 1985 | 3914 | inactive
CG11444 (GeneID 31388) | DRSC17784 | 83296 | 91036 | – | 1008 | 2709 | inactive
CG17544 (GeneID 35213) | DRSC02624 | 53712 | 34018 | – | 2576 | 1443 | inactive
CG44325 (GeneID 31831) | DRSC18039 | 82269 | 1.81e5 | – | 1987 | 7497 | inactive
CG44325 (GeneID 31831) | DRSC18423 | 87458 | 2.15e5 | – | 2212 | 8864 | inactive
CG34242 (GeneID 5740417) | DRSC09185 | 1.92e5 | 2.75e5 | – | 5718 | 12407 | inactive
Snm1 (GeneID 40669) | DRSC12130 | 1.70e5 | 92880 | – | 6422 | 4140 | inactive
CG32187 (GeneID 39980) | DRSC10521 | 93360 | – | – | 5771 | 2779 | inactive
CG15107 (GeneID 59128) | DRSC06534 | 1.16e5 | 34998 | – | 3154 | 2167 | inactive
CG1789 (GeneID 31812) | DRSC18140 | 89505 | 60596 | – | 2326 | 1658 | inactive
CCKLR-17D1 (GeneID 32860) | DRSC20010 | 1.23e5 | 3.44e5 | – | 2266 | 13637 | inactive
CCKLR-17D1 (GeneID 32860) | DRSC20011 | 84729 | 2.47e5 | – | 1312 | 9824 | inactive
CCKLR-17D1 (GeneID 32860) | DRSC20012 | 62525 | 2.50e5 | – | 1411 | 10064 | inactive
kappaB-Ras + CG30503 | DRSC06619 | 69512 | 63648 | – | 1812 | 4891 | inactive
kappaB-Ras + CG30503 | DRSC07636 | 1.16e5 | 60704 | – | 2695 | 5187 | inactive
fon (GeneID 35211) | DRSC02507 | 74267 | 79173 | – | 3491 | 3317 | inactive
Crys (GeneID 34604) | DRSC03294 | 1.03e5 | 62378 | – | 3949 | 2725 | inactive
CG14431 (GeneID 31639) | DRSC17925 | 84971 | 2.74e5 | – | 3336 | 10988 | inactive
CG14431 (GeneID 31639) | DRSC17926 | 42774 | 1.19e5 | – | 1280 | 5079 | inactive
Vha36-2 (GeneID 36328) | DRSC06294 | 98845 | 44099 | – | 2154 | 3089 | inactive
CG5388 (GeneID 42612) | DRSC15789 | 4.72e5 | 2.18e5 | – | 21559 | 5813 | inactive
mRpL15 (GeneID 40261) | DRSC11771 | 1.18e5 | 1.34e5 | – | 4832 | 5060 | inactive
olf186-M (GeneID 37039) | DRSC07657 | 51875 | 57874 | – | 1014 | 4384 | inactive
CrzR (GeneID 39409) | DRSC09781 | 63333 | 50983 | 54989 | 4993 | 3841 | inactive
CrzR (GeneID 39409) | DRSC09782 | 61121 | 52538 | 45552 | 4310 | 3080 | inactive
Osi4 (GeneID 40758) | DRSC12134 | 80593 | 1.12e5 | – | 3281 | 2908 | inactive
CG15876 (GeneID 38573) | DRSC08484 | 46292 | 56421 | – | 4576 | 4309 | inactive
CG11406 (GeneID 37877) | DRSC04010 | 1.83e5 | 2.50e5 | – | 3546 | 10349 | inactive
CG11406 (GeneID 37877) | DRSC04108 | 1.10e5 | 64688 | – | 2998 | 5866 | inactive
CG13471 (GeneID 39604) | DRSC10015 | 87958 | – | – | 2029 | 2396 | inactive
Prp5 (GeneID 32464) | DRSC19975 | 1.41e5 | 2.63e5 | – | 5078 | 12806 | inactive
CG1077 (GeneID 40751) | DRSC12146 | 89040 | 1.98e5 | – | 3012 | 5434 | inactive
CG4829 (GeneID 32672) | DRSC19920 | 77607 | 84007 | – | 1970 | 2084 | inactive
CG32225 (GeneID 317926) | DRSC09657 | 1.98e5 | – | – | 3979 | – | inactive
Fatp (retired record) (GeneID 44227) | DRSC03054 | 64277 | 81730 | – | 3484 | 3196 | inactive
Rpn3 (GeneID 35176) | DRSC03318 | 37013 | 22791 | – | 1369 | 4284 | active
CG5062 (GeneID 31435) | DRSC18385 | 55040 | 1.25e5 | – | 2184 | 6165 | inactive
CG30286 (GeneID 246529) | DRSC04070 | 71914 | 73288 | – | 2353 | 6644 | inactive
plh (GeneID 40615) | DRSC12294 | 1.11e5 | 1.14e5 | – | 4070 | 1760 | inactive
CG3119 (GeneID 33479) | DRSC00569 | 1.16e5 | 82036 | – | 2475 | 2246 | inactive
CG11350 (GeneID 38554) | DRSC08181 | 67401 | 5.03e5 | 37987 | 7883 | 31652 | inactive
Nipped-A (GeneID 35483) | DRSC04882 | 85576 | 6.07e5 | 1.03e5 | 4944 | 41629 | inactive
Nipped-A (GeneID 35483) | DRSC04883 | 80684 | 43837 | – | 2393 | 4395 | inactive
Nipped-A (GeneID 35483) | DRSC04884 | 70811 | 43684 | – | 2434 | 4742 | inactive
Nipped-A (GeneID 35483) | DRSC07738 | 52115 | 34113 | – | 2360 | 3339 | inactive
Tg (GeneID 34093) | DRSC03047 | 1.20e5 | 77156 | – | 3344 | 5216 | inactive
mRpS29 (GeneID 37563) | DRSC04398 | 48837 | 43232 | – | 2071 | 1728 | inactive
twit (GeneID 35353) | DRSC03210 | 1.15e5 | 1.05e5 | – | 4224 | 4322 | inactive
Osi9 (GeneID 40763) | DRSC12278 | 4.64e5 | 85280 | – | 3001 | 3001 | inactive
inaF-C (GeneID 5740497) | DRSC18902 | 4.89e5 | 1.75e5 | – | 25204 | 3810 | inactive

Active calls, of those listed so far:
Target gene | DRSC id | firefly Hh reporter signal, replicate 1 | firefly Hh reporter signal, replicate 2 | firefly Hh reporter signal, replicate 3 | Renilla reference signal, replicate 1 | Renilla reference signal, replicate 2 | Outcome
CG44085 (GeneID 34732) | DRSC02922 | 29484 | 10404 | – | 1443 | 1613 | active
Rpn3 (GeneID 35176) | DRSC03318 | 37013 | 22791 | – | 1369 | 4284 | active
